From article PMC8921229
Results are given in words; binding and its absence hold for the method and conditions named. In cells and extracts the contact can be indirect. Here binding means that the protein was enriched with, or labelled near, the bait; the list need not be complete.

Sequences of proteins named here, by UniProt entry; tags and fusion partners are left off.
UniProt P57764: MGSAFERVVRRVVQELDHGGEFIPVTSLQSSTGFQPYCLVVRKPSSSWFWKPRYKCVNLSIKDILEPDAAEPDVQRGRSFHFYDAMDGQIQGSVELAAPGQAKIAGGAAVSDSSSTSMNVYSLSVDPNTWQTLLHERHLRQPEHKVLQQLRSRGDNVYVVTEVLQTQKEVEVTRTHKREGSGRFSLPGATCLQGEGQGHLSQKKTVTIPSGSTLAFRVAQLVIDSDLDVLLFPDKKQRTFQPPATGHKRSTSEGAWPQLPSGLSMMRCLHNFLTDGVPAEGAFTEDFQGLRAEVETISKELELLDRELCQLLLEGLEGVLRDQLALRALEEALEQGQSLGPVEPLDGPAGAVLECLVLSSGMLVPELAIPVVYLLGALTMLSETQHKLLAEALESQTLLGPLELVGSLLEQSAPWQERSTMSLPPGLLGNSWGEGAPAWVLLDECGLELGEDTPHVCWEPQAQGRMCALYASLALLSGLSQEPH
UniProt P05198: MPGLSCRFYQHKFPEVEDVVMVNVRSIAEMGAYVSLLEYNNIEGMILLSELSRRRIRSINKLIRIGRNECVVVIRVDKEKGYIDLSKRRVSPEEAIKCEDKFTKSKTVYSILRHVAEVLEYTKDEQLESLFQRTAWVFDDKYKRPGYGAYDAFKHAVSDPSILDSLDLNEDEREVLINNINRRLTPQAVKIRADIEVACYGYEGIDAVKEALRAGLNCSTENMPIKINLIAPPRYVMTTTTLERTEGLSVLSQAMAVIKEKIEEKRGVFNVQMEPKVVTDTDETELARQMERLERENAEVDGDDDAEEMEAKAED

Biological target: SFB-tagged GSDMD (human) (UniProt P57764)
Experiment: affinity purification with mass spectrometry; co-IP of SFB-tagged GSDMD from a cell line with stable overexpression; proteins digested on the beads with trypsin; mass spectrometry

eIF2α (from UniProt P05198 1-315) was tested, and the binding was “binds”.
